# Data taken from the supplement of paper PMC4683952.
# The list shows a part of the results. Cut-off read from the data, not from the text of the source: active = 2 or more and inactive = the rest. Most values lie within the scatter of the assay; repeated measurements hardly agree.
# Test system: Lgr5 (MarsCy1-Lgr5-EGFP, U2OS)
# Experiment: cell-surface Lgr5 expression (SCi1 fluorescence, background-subtracted) relative to WT DMSO (fold of DMSO control); higher = more Lgr5 at the plasma membrane
# Details: U2OS MarsCy1-Lgr5-EGFP stable; treatment time: overnight; library: ActiProbe-5K (TimTec); 25 µM
row,Structure (SMILES),cell-surface Lgr5 expression
1,CC12CC3CC(C)(C1)CC(NC(=O)C1=NNC(=O)CC1)(C3)C2,inactive: 1.47
2,CC1CCN(c2nc(N3CCCCC3)nc(N3CCCCC3)n2)CC1,inactive: 1.23
3,COc1ccc2c(c1)CCc1sc(N)nc1-2,inactive: 1.31
4,Cc1ccc(/C=N\n2c(S)nnc2C2CCCCC2)o1,inactive: 1.14
5,N=C([NH3+])NC(=N)Nc1cccc(C(F)(F)F)c1.[Cl-],inactive: 1.2
6,Nc1nc(-c2ccccc2)cc(=S)s1,inactive: 0.925
7,Cn1cc(C(=O)N2N=CCC2(O)C(F)(F)F)cn1 (stereo not given),inactive: 1.12
8,OC(CNCCOc1ccccc1)Cn1c2ccccc2c2ccccc21 (stereo not given),inactive: 1.43
9,C1(=C(/C(=O)C)C(=O)C)/OC(=O)c2c1cccc2,inactive: 1.22
10,C1(=C([C@]([C@@H]([C@@H]2(C1=CCN(C2)C))c1cocc1)(C#N)C#N)N)C#N,inactive: 1.2
11,Oc1ccc2cc(SSc3ccc4cc(O)ccc4c3)ccc2c1,inactive: 0.961
12,O=[N+]([O-])c1cc(/C=N\c2cc(Cl)cc(Cl)c2)ccc1Cl,inactive: 1.59
13,c1ccc(-c2cc(-c3nnc(-c4ccncc4)o3)c3ccccc3n2)cc1,active: 2.92
14,NC(=O)c1nc(Cl)c(N)nc1N,inactive: 1.22
15,Cc1[nH]c(=O)[nH]c(=O)c1CSCC(=O)O,inactive: 1.28
16,N#CC1=C(N)Oc2ncnc(O)c2C1c1cccs1 (stereo not given),inactive: 1.22
17,Nc1nonc1/C(=N/O)n1cc(-c2ccccc2)nn1,inactive: 1.06
18,O=c1[nH]c(=O)c2ncn(C3OC(CO)C(O)C3O)c2[nH]1 (stereo not given),inactive: 1.04
19,Cc1cc(C)n(C)c(=O)c1C(=O)NCC1CCCO1 (stereo not given),inactive: 1.09
20,Cn1cccc1/C=N/NC(=O)Cn1cnc2c1c(=O)n(C)c(=O)n2C,inactive: 1.22
21,COc1ccc(Br)cc1-c1noc(C(F)(F)F)n1,inactive: 1.11
22,CCN1CCC2(CC1)C(C#N)=C(N)Oc1[nH]nc(C)c12,inactive: 1.12
23,Cc1cc2n(n1)C(C(F)(F)F)CC(C1CC1)N2 (stereo not given),inactive: 1.34
24,CCCCc1[nH]nc2c1C1(CCCCC1)C(C#N)=C(N)O2,inactive: 0.935

row,Structure (SMILES),cell-surface Lgr5 expression
1,CCCCCCCCCn1c(=O)c2c(ncn2C)n(C)c1=O,inactive: 1.31
2,c1ccc2c(c1)OC1(CCCCC1)O2,inactive: 1.24
3,O=S(=O)(Cc1ccccc1)NC1CCCC1,inactive: 1.08
4,C=C(C)CC1NC2CC(C)(C)C1c1c(Br)cccc12.Cl (stereo not given),inactive: 1.34
5,Cn1c(N)nc2ccccc21,inactive: 1.22
6,O=[N+]([O-])c1cc2c(c([N+](=O)[O-])c1)C=Cc1cc(Cl)ccc1O2,inactive: 0.908
7,O=c1[nH]cc(C(F)(F)F)c(=O)[nH]1,inactive: 1.19
8,Oc1ccc(/C=N/Nc2nccnc2Cl)c(O)c1,inactive: 0.306
9,O=c1ccn(-c2ccccc2)[nH]1,inactive: 1.04
10,O=S(=O)(Nc1nc2ccccc2nc1N1CCOCC1)c1ccccc1,inactive: 1.41
11,CC(C)N1C[C@@H](C)C(=O)C[C@@H]1C,inactive: 1.45
12,CC(C)(C)S(=O)(=O)c1cccc(S(=O)(=O)C(C)(C)C)c1,inactive: 0.918
13,CN(C)c1ccc([N+](=O)[O-])cc1Cl,inactive: 1.1
14,c1ccc(-n2cnc3cnccc32)cc1,inactive: 1.1
15,O=C(NCCCCNC(=O)c1cnccn1)c1cnccn1,inactive: 1.19
16,Clc1cc2c(cc1CO/N=C1/CCCc3nonc31)OCO2,inactive: 0.968
17,Nc1nonc1NC(=O)CCC(=O)O,inactive: 1.12
18,Oc1ncnc2c1sc(=S)n2Cc1ccccc1,inactive: 1.38
19,Oc1ccc(Cl)cc1Sc1cc(Cl)ccc1O,inactive: 0.891
20,Sc1nnc(-c2ccco2)n1/N=C/C=C\c1ccco1,inactive: 1.23
21,FC(F)(F)c1ccnc(=S)[nH]1,inactive: 1.15
22,COC(=O)/C(C#N)=C\c1cccn1C,inactive: 1.13
23,c1ccc(-c2nnc(-c3ccccn3)o2)nc1,inactive: 1.19
24,N#CC1=C(N)Oc2ncnc(O)c2C1c1ccoc1 (stereo not given),inactive: 1.31

row,Structure (SMILES),cell-surface Lgr5 expression
1,CC(C)c1nnc(NC(=O)CC(C)(C)C)s1,inactive: 1.38
2,O=C(NCC12CC3CC(CC(C3)C1)C2)c1cnccn1,inactive: 1.19
3,Oc1ncnc2nn(-c3ccccc3)nc12,inactive: 1.33
4,O=C1OCCO/C1=C/c1ccc([N+](=O)[O-])o1,inactive: 0.825
5,CCSc1nnc(C(F)F)n1NS(=O)(=O)c1cc(C)ccc1C,inactive: 0.902
6,CCOC(=O)C1=C(C)NC(Nc2nccs2)(C(F)(F)F)C1=O (stereo not given),inactive: 1.33
7,O=C1OCc2cc(NS(=O)(=O)c3ccc(Br)s3)ccc21,inactive: 1.28
8,N#Cc1cc2c([nH]c1=S)CCC2,inactive: 1.22
9,n1(c2c(non2)N)c(c(C(N\N=C2\CCCCCC2)=O)nn1)C,inactive: 1.23
10,O=C/C(=C/O)c1cnc2ccccc2n1,inactive: 1.25
11,C=CCN(CC=C)Cn1nc(O)ccc1=O,inactive: 1.06
12,Cc1sc2nc[nH]c(=O)c2c1C,active: 2.29
13,NC(=O)CSc1nnnn1C1CCCCC1,inactive: 1.2
14,Cn1nc(C(F)(F)F)c(Br)c1C(=O)NN,inactive: 0.952
15,CC1(C)CC2(CCS1)N1CC3(C)CN2CC(C)(C1)C3=O (stereo not given),inactive: 0.902
16,Cc1nnc(C)n1/N=C/c1cccn1C,inactive: 1.24
17,CSc1ccc(/C=N/n2c(S)nnc2-c2ccc(C(C)(C)C)cc2)cc1,inactive: 0.935
18,OC1(/C=C/C[NH+]2CCCCC2)CCCCC1.[Cl-],inactive: 1.33
19,O=c1[nH]cnc2sc3c(c12)CCCC3,inactive: 0.771
20,CC1=NN(c2ccccc2)C(=O)/C1=C/N(S)C(C)(C)C,inactive: 1.06
21,O=C(O)c1cc2c(s1)CCCC2,inactive: 1.36
22,CCOC(=O)c1c[nH]c2nc(C)nn2c1=O,inactive: 0.799

# An excerpt from above in order of length of the SMILES, low to high.
row,Structure (SMILES),cell-surface Lgr5 expression
16,Cc1nnc(C)n1/N=C/c1cccn1C,inactive: 1.24
11,C=CCN(CC=C)Cn1nc(O)ccc1=O,inactive: 1.06
15,CC1(C)CC2(CCS1)N1CC3(C)CN2CC(C)(C1)C3=O (stereo not given),inactive: 0.902
